Assay results reported in patent publication US20030119792A1, “Method of inhibiting the production and/or effects of intestinal pro-inflammatory cytokines, prostaglandins and others” (priority 2001, published 2003).
Some of these results come from one statement about several compounds together.

System: IL-8 production in HT-29 cells
Assay: LPS-stimulated IL-8 production in HT-29 cell cultures
Format: cell-based, human
Details: achieved at 10^−6 M, not higher up to 10^−4 M

Question: For “(Z)-1-[4-(3-aminophenyl)-1-oxo-3-phenyl-2-propenyl]-4-[(2-methyl-lH-imidazo[4,5-c]pyridin-1-yl)methyl] piperidine [UR-12715]”, which “maximum inhibitory effect on LPS-stimulated IL-8 production” value is on record?
Answer: 30-40%
